Source: paper PMC8948245, “Mechanistic insights into the regulation of plant phosphate homeostasis by the rice SPX2 – PHR2 complex” (Nature Communications, 2022)
For some assays here: A weaker result is weaker than the reference pair of the same experiment. For some assays here: For at least one entry, the source does not settle the construct or the ends of the probe. For some assays here: At least one verdict was read from the data and is not stated in words by the source.

Amino acid sequences for entries named in this document (tags omitted). Residues count along the entry.
UniProt B8B5N8, 225-362 K292A: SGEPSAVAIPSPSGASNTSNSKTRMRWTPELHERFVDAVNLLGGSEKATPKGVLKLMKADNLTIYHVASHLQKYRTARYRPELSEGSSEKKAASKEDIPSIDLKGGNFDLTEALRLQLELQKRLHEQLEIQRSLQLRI
UniProt B8B5N8, 180-313: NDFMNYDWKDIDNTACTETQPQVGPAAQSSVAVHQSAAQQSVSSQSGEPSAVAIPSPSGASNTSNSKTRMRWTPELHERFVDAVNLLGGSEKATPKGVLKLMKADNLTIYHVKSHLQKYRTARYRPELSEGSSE
UniProt B8B5N8, 225-362 Q296A: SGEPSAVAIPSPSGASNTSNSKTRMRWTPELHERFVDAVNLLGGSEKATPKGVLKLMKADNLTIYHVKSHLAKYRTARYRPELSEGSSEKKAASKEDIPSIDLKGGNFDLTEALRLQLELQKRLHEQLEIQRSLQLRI
UniProt B8B5N8, 225-362: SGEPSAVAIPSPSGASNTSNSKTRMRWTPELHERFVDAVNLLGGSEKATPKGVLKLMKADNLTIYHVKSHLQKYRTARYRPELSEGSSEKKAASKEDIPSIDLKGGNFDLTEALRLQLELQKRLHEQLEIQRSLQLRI
UniProt B8B5N8, 225-362 S293A: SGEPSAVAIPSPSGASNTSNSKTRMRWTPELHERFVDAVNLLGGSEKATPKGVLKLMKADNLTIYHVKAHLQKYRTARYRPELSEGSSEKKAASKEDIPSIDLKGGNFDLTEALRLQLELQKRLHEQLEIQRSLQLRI

Experiments:
Test in all cases: EMSA
[1] = biological target: PHR2 MYB-CC K292A (Oryza sativa) (UniProt B8B5N8); details: EMSA: 10 nM FAM-DNA, 0.3375-0.8 uM PHR2, 25 mM Tris-HCl pH 8.0, 150 mM NaCl, 5 mM DTT, 10% glycerol, 200 ng/ml heparin, 4 C, 30 min; recombinant protein; residues 225-362; protein details: C-terminal 8xHis
[2] = biological target: PHR2 MYB (EMSA) (Oryza sativa) (UniProt B8B5N8); details: compared with PHR2 MYB-CC; EMSA: 10 nM FAM-DNA, 0.3375-0.8 uM PHR2, 25 mM Tris-HCl pH 8.0, 150 mM NaCl, 5 mM DTT, 10% glycerol, 200 ng/ml heparin, 4 C, 30 min; recombinant protein; protein details: C-terminal 8xHis (general PHR2 cloning)
[3] = biological target: PHR2 MYB-CC Q296A (Oryza sativa) (UniProt B8B5N8); details: EMSA: 10 nM FAM-DNA, 0.3375-0.8 uM PHR2, 25 mM Tris-HCl pH 8.0, 150 mM NaCl, 5 mM DTT, 10% glycerol, 200 ng/ml heparin, 4 C, 30 min; recombinant protein; residues 225-362; protein details: C-terminal 8xHis
[4] = biological target: PHR2 MYB-CC (Oryza sativa) (UniProt B8B5N8); details: EMSA: 10 nM FAM-DNA, 0.3375-0.8 uM PHR2, 25 mM Tris-HCl pH 8.0, 150 mM NaCl, 5 mM DTT, 10% glycerol, 200 ng/ml heparin, 4 C, 30 min; recombinant protein; residues 225-362; protein details: C-terminal 8xHis
[5] = biological target: PHR2 MYB-CC S293A (Oryza sativa) (UniProt B8B5N8); details: EMSA: 10 nM FAM-DNA, 0.3375-0.8 uM PHR2, 25 mM Tris-HCl pH 8.0, 150 mM NaCl, 5 mM DTT, 10% glycerol, 200 ng/ml heparin, 4 C, 30 min; recombinant protein; residues 225-362; protein details: C-terminal 8xHis

Sequence: AAGCTTGAATATGCAATGGAATATGCTTAG (double strand) [FAM P1BS EMSA probe]
- binding result [1]: binds more weakly
- binding result [2]: binds more weakly
- binding result [3]: binds more weakly
- binding result [4]: binds
- binding result [5]: binds more weakly
